Data: ChEMBL document CHEMBL4513141, “CO-ADD screening of NIH (USA) - Clinical Collection” (2021)
This is one part of the list. Entries with a potency or affinity are not part of this list.

tested on: Pseudomonas aeruginosa; conditions: Concentration 20 uM; ASSAY_TEST Inhibition of Bacterial Growth; detection method Absorption (OD600); MEDIA CAMHB; plate type 384well; NBS; CORNING #3640; time 18 hr

**Q.** For `CS(=O)(=O)c1ccc(-c2cc(Br)sc2-c2ccc(F)cc2)cc1` [DUP-697], which Inhibition is on record?
**A.** 4.8%

**Q.** How did the Inhibition turn out when `CCC(=O)O[C@]1(C(=O)SCF)[C@H](C)C[C@H]2[C@@H]3C[C@H](F)C4=CC(=O)C=C[C@]4(C)[C@@]3(F)[C@@H](O)C[C@@]21C` [FLUTICASONE PROPIONATE] was run?
**A.** 5.17%

**Q.** Which Inhibition does the source give for `Cl.O=C(c1ccc(OCCN2CCCCC2)cc1)c1c(-c2ccc(O)cc2)sc2cc(O)ccc12` [RALOXIFENE HYDROCHLORIDE] here?
**A.** 4.22%

**Q.** How did the Inhibition turn out when `C[C@]12C=CC(=O)C=C1CC[C@@H]1[C@@H]2[C@@H](O)C[C@@]2(C)[C@H]1CC[C@]2(O)C(=O)COC(=O)CCC(=O)[O-].[Na+]` [PREDNISOLONE SODIUM SUCCINATE] was run?
**A.** 4.81%

**Q.** For `CC[C@]1(O)C[C@@H]2CN(CCc3c([nH]c4ccccc34)[C@@](C(=O)OC)(c3cc4c(cc3OC)N(C)[C@H]3[C@@](O)(C(N)=O)[C@H](O)[C@]5(CC)C=CCN6CC[C@]43[C@@H]65)C2)C1.O=S(=O)(O)O` [VINDESINE SULFATE], which Inhibition is on record?
**A.** 5.43%

**Q.** How did the Inhibition turn out when `COc1ccccc1N1CCN(CCCNc2cc(=O)n(C)c(=O)n2C)CC1.Cl` [URAPIDIL HYDROCHLORIDE] was run?
**A.** 19.16%

**Q.** `CC#C[C@]1(O)CC[C@H]2[C@@H]3CCC4=CC(=O)CCC4=C3[C@@H](c3ccc(N(C)C)cc3)C[C@@]21C` [MIFEPRISTONE] was tested. Which Inhibition did it give?
**A.** 4.18%

**Q.** With `CC(=O)OCC(=O)[C@@]1(O)CC[C@H]2[C@@H]3CCC4=CC(=O)CC[C@]4(C)[C@H]3[C@@H](O)C[C@@]21C` [HYDROCORTISONE ACETATE] as the compound, how does the Inhibition read?
**A.** 18.68%

**Q.** For `Nc1ccc2cn[nH]c2c1`, which Inhibition is on record?
**A.** 18.59%

**Q.** For `Cl.O[C@@H](c1cc(C(F)(F)F)nc2c(C(F)(F)F)cccc12)[C@H]1CCCCN1`, which Inhibition is on record?
**A.** 14.68%

**Q.** Which Inhibition does the source give for `CCOc1cc(CC(=O)N[C@@H](CC(C)C)c2ccccc2N2CCCCC2)ccc1C(=O)O` [REPAGLINIDE] here?
**A.** 6.11%

**Q.** For `Cc1occc(=O)c1O` [MALTOL], which Inhibition is on record?
**A.** 10.89%

**Q.** How did the Inhibition turn out when `CN(CCO)CC(O)Cn1cnc2c1c(=O)n(C)c(=O)n2C.O=C(O)c1cccnc1` (stereo unspecified) [XANTHINOL NIACINATE] was run?
**A.** 42.72%

**Q.** How did the Inhibition turn out when `CC(C(=O)O)c1cccc(C(=O)c2ccccc2)c1` (stereo unspecified) [KETOPROFEN] was run?
**A.** 8.02%

**Q.** `COc1cc(/C=C/c2ccc(O)cc2)cc(OC)c1` [PTEROSTILBENE] was tested. Which Inhibition did it give?
**A.** 31.46%

**Q.** Which Inhibition does the source give for `CC(C)NCC(O)COc1ccc(CCOCC2CC2)cc1.Cl` (stereo unspecified) [BETAXOLOL HYDROCHLORIDE] here?
**A.** 19.43%
